Measurements from patent publication US11168287B2, “Anti-adherent compositions and methods of inhibiting the adherence of microbes to a surface” (Kimberly-Clark Worldwide, Inc., priority 2016, dated 2021).
Some entries share one result that the patent states for a list of compounds.

Tests used:
[1] = test system: E. coli ATCC 11229; test: High Throughput Attachment Test Method (bacterial attachment to MBEC pegs), E. coli; format: cell-based, Escherichia coli; conditions: category from the ratio of bacterial growth on treated to untreated pegs
Description: (§1) Anti-adherent compositions including anti-adherent agents as discussed herein were tested against bacteria using the High Throughput Attachment Test Method. The High Throughput Attachment Test Method is discussed in further detail below. The anti-adherent compositions including the anti-adherent agents were tested against Gram-positive Staphylococcus aureus, and Gram-negative Escherichia coll. The pH of the compositions for this testing between 3 to 10 pH, or about 4 to about 8 pH.
(§2) This test method specifies the operational parameters required to grow and or prevent the formation of bacterial attachment using a high throughput screening assay. The assay device consists of a plastic lid with ninety-six (96) pegs and a corresponding receiver plate with ninety-six (96) individual wells that have a maximum 200 μL working volume. Biofilm is established on the pegs under static batch conditions (i.e., no flow of nutrients into or out of an individual well).
(§3) 6.1.1 E. coli ATCC 11229 and S. aureus ATCC 6538 are the organisms used in this test.
(§4) 6.1.5 Incubate flask at 35±2° C. and 175±10 rpm for 16 to 18 hours (E. coli and S. aureus). Viable bacterial density should be 10^9 CFU/mL and should be checked by serial dilution and plating.
(§5) 6.1.6 Pipette 10 mL from the incubation flask of E. coli and S. aureus into a 50 mL conical tube and spin down at 5 minutes at 4,000×g. […]

[2] = test system: S. aureus ATCC 6538; test: High Throughput Attachment Test Method (bacterial attachment to MBEC pegs), S. aureus; format: cell-based, Staphylococcus aureus; conditions: category from the ratio of bacterial growth on treated to untreated pegs
Description: as §1, §2, §3, §4, §5

| Structure (SMILES) | Categorization of effect against Gram negative bacteria (E. coli) [1] | Categorization of effect against Gram positive bacteria (S. aureus) [2] |
| --- | --- | --- |
| CCCCC(CC)COC(=O)c1ccccc1O (stereo not shown) [Compound 8, Ethylhexyl Salicylate] | neutral (between 85%-115%, the agent is deemed to be neutral (neither adherent nor anti-adherent)) | anti-adherent (less than 85%, the agent is deemed to be anti-adherent) |
| CCCCC(CC)COC(=O)C(C#N)=C(c1ccccc1)c1ccccc1 (stereo not shown) [Compound 9, Octocrylene] | neutral (between 85%-115%, the agent is deemed to be neutral (neither adherent nor anti-adherent)) | anti-adherent (less than 85%, the agent is deemed to be anti-adherent) |
